# At least one structure is not confirmed: it was looked up by name or label, or the drawing left a doubt.
# How the values were obtained:
# [1] = tested on: wild type NSCs and GBM tumor-derived cells; assay: Chemotherapy effect on neurosphere formation and cell viability (MTT or MTS); format: cell-based; conditions: TMZ at 100-200 uM
# GBM patients = conditions: cited from earlier work
compound,measurement,setting,value
"Cn1nnc2c(C(N)=O)ncn2c1=O [TMZ, temozolomide]",cell viability,[1],greatly decreases
same,formation of neurospheres,[1],greatly decreases
same,two-year survival rate,"GBM patients; surgery, radiotherapy and temozolomide, 10.4% with radiotherapy alone",26.5%
same,median overall survival,GBM patients; temozolomide and radiotherapy,14.6 months
same,median progression-free survival,GBM patients; temozolomide and radiotherapy,6.9 months

# Reference: US8637493B2, “Methods for treating glioblastoma” (University of Massachusetts, priority 2009, dated 2014)
